Test results as given in article PMC4746285, “Functional Analysis of the Citrate Activator CitO from Enterococcus faecalis Implicates a Divalent Metal in Ligand Binding” (Frontiers in Microbiology, 2016).

System: CitO-wt (Enterococcus faecalis)
Assay: EMSA
Conditions: 5 mM citrate, binding unaffected by metal, recombinant protein, protein details: His-tag (pET-citO), label: 5' biotin, probe letters rebuilt from the primers and the genome

Measured: binding result

GGTATACGTTCATTATAGAAAAAACCGTTAAAAAACCTAGTGAAAACACTAGCTCAGATTGTTCTTTTATTGTTTATTTTGTGAAAAAAACTCTGTAAACATTGGTATATAAGCATTTATCAGCCGTTAAGATTCTATTAATATTATATTAAGTTATTAATAAGAATTTGATTGTTGAATTGTTTTTTTGATGTTCTTTTTGTTTTAGGCTATTTATTCTCTGCGAAAGTTTGTATATTCTCACAC (double strand) [PcitH-CL]
binds: 2 mM Ca2+ | 2 mM Mg2+ | 2 mM Mn2+ | 2 mM Ni2+ | 2 mM Zn2+

The exact form of at least one protein or probe is not confirmed. At least one verdict was read from the data and is not stated in words by the source.
